# Measured values from patent US20170168041A1 (National University of Singapore, priority 2014, published 2017).
# Experiment: peptide synthesis
# Details: conjugation step
Substance,conjugation yield,"conjugation yield (head-to-tail ring, sequence written open)","final HPLC purity (λ=320 nm, head-to-tail ring, sequence written open)"
Alkyne-(Asp-Asp-Asp-Asp-Asp-Val-His-Leu-Gly-Tyr-Ala-Thr) (SEQ ID NO: 7),˜25%,–,–
TPETP-SS-DEVD-TPS-cRGD,–,32%,97.3%
Alkyne-(Gly-Val-His-Leu-Gly-Tyr-Ala-Thr) (SEQ ID NO: 6),˜30%,–,–
